According to US20250051464A1:
These are yes or no findings as the source states them, for the method shown. Some results given as binding are weak or reduced against the parent protein; the word gives no strength.

Chains of the proteins cited; added tags and fusions are not shown. Lines headed by an entry give the natural chain unless they say otherwise; changes in a name come on top. Residues count along the entry.
UniProt P29317: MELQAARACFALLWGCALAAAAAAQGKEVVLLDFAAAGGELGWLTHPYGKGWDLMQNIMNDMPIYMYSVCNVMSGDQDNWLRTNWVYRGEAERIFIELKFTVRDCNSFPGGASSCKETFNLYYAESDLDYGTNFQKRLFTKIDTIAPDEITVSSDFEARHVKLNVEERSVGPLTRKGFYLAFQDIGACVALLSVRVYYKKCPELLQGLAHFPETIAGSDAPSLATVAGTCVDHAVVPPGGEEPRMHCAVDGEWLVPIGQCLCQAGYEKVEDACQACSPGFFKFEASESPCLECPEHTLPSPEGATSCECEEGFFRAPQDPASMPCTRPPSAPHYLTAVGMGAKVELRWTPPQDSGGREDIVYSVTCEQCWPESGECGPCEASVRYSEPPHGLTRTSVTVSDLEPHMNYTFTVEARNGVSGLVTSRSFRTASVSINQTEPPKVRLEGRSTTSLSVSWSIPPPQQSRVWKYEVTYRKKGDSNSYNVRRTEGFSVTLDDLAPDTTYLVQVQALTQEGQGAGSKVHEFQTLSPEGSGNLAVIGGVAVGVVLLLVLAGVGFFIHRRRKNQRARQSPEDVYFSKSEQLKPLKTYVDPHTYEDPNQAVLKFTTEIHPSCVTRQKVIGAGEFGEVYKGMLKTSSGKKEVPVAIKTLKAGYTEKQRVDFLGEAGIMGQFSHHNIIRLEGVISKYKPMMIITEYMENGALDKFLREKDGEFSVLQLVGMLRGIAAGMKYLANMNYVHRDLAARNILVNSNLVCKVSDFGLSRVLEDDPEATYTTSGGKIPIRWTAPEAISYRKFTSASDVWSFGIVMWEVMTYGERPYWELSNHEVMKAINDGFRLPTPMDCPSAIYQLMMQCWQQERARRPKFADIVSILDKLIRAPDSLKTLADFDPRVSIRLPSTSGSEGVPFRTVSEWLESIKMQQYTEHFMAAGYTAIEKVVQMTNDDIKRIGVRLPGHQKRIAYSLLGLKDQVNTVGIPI
UniProt P20827, residues 19-182: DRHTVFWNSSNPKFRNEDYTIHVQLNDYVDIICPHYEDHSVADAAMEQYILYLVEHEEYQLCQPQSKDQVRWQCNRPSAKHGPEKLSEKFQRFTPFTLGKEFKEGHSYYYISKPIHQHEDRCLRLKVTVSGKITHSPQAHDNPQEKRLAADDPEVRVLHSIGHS

Assays:
[1] = biological target: extracellular domain of human EphA2 (25-534) with a C-terminal HIS tag (R&D Systems, 3035-A2) (human) (UniProt P29317); assay: BLI in-tandem binning matrix on EphA2 ECD-His, competitor AB-010018
[2] = biological target: extracellular domain of human EphA2 (25-534) with a C-terminal HIS tag (R&D Systems, 3035-A2) (human) (UniProt P29317); assay: BLI in-tandem binning matrix on EphA2 ECD-His, competitor AB-008873

EphrinA1 fused to Fc (Acro, EF1-H5251) (from UniProt P20827 19-182) (Fc fusion)
binding [1]: binds
binding [2]: binds
